Article PMC5354749
No constants are given. Whether binding was seen depends on the method and setting. Binding seen in cells or lysates may run through a third protein. Sequences can lack the tags named with a protein.

By UniProt entry, the sequences of proteins in these tests, tags left out.
UniProt P53667: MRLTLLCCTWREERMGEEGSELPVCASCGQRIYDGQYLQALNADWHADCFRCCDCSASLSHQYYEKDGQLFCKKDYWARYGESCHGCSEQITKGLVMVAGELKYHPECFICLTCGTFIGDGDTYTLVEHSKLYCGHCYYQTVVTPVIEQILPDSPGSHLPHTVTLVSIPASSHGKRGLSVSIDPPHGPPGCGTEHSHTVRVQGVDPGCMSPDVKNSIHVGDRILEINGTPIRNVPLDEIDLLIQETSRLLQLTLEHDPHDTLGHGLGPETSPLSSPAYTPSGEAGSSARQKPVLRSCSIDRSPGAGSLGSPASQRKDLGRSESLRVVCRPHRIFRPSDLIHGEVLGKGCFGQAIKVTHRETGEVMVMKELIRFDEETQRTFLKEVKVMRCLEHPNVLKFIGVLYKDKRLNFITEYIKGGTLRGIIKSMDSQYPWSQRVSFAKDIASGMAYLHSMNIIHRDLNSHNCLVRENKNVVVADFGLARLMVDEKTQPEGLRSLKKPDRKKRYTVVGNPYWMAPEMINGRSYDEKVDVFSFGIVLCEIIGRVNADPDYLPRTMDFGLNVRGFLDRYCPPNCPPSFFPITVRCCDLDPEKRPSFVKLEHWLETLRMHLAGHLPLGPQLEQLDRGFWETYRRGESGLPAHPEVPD

Biological target: MBP-LMO2 recombinant fusion protein (human) (UniProt P25791)
Experiment: pull-down; MBP-pulldown: MBP-LMO2 recombinant fusion protein with myc-tagged proteins from HEK293T cell lysates; 1 mg of total protein; only the target purified

binding: no binding
Substance: myc-tagged LIMK1 (from UniProt P53667 1-647) (enzyme)
